According to PMC5896254:
These are yes or no findings as the source states them, for the method shown. In cells and extracts the contact can be indirect. Some results given as binding are weak or reduced against the parent protein; the word gives no strength.

Protein sequences, listed by entry. Tags and fused reporters are not part of them. Lines headed by an entry give the natural chain unless they say otherwise; changes in a name come on top.
UniProt P62491: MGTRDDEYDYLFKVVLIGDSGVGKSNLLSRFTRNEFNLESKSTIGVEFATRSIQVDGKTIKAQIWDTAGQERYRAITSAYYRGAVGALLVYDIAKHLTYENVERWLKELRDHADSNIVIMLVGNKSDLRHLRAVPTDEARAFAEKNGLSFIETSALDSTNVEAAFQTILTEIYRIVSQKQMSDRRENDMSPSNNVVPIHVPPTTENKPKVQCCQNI

Target: T1, WIPI1 (UniProt Q5MNZ9)
T1 sequence: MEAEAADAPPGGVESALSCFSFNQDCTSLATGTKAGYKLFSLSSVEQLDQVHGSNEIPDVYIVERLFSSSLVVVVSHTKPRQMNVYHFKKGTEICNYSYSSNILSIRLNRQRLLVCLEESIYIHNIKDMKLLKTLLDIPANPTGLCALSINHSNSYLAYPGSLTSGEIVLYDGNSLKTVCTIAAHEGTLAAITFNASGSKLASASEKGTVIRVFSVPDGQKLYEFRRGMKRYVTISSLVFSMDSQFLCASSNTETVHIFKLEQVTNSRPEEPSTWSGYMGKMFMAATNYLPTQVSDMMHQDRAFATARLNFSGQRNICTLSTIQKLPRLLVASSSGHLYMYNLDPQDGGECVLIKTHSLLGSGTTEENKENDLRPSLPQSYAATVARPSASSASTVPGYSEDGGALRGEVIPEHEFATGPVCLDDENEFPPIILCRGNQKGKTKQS
Experiment: pull-down; WIPI1 as bait, RAB11A detected; nothing more told in the text shown (Figure S1Q)

Q: “RAB11A (pulled down by WIPI1, Figure S1Q) (from UniProt P62491 1-216)” was tested. Which binding did it give?
A: binds
